From ChEMBL document CHEMBL3988442, “University of Dundee, Small-Polar-MMV Screening Library” (2021).

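Assay of Toxoplasma gondii numbers, read through their beta-galactosidase reporter with a colour substrate. Concentration: 50 µM. Higher reads as fewer parasites (inferred from which compounds were picked for retests). Of about 18,000 compounds tested this way, about 170 (0.94%) reached 50% or more in at least one test.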

Values are the deposited “Percent Effect”, in %.
The controls that fix the scale are not given in the record; negative values are as filed.
This is an unselected part of the compounds tested.

SMILES	effect
Cc1nc(CCN)cc(NC2CCC2)n1	-14.1
Cc1ncc(CN(C)CC(O)COCc2ccco2)s1 (stereo unspecified)	-3.146
CC(CS(C)(=O)=O)NC1CC1 (stereo unspecified)	2.345
CC(C)(C)OC(=O)N1CCCC1=O	10.13
Cc1ccc(C)c(OCCC(=O)NCCCC(N)=O)c1	-7.352
CC(=O)N1CCCN(S(=O)(=O)c2ncn(C)c2Cl)CC1	9.163
CCn1ncnc1C(NC(=O)CSC)C1CC1 (stereo unspecified)	13.53
CN(c1ccccc1C(N)=O)S(C)(=O)=O	4.578
Cc1nn(C)cc1C(=O)N1C[C@@H](CO)[C@H](N(C)C)C1	-5.68
CN1CCN(C2CCN(Cc3ccccn3)CC2)CC1	-24.74
CN(C)c1cc(CNC(=O)c2ccccc2F)ccn1	4.26
CN1CCC(NC(=O)CC(C)(C)C)CC1	9.984
c1ccc(-c2noc(C3CCCO3)n2)nc1 (stereo unspecified)	-3.658
O=S(=O)(CCN1CCN(CCO)CC1)C(F)(F)F	1.463
Clc1ccnc(N2CCCC2)c1	-27.01
CN1CCCC1CCNC(=O)c1ccc(O)c(Cl)c1 (stereo unspecified)	-2.592
Cc1occc1[S+]([O-])CC(=O)NCC(F)(F)F (stereo unspecified)	-4.64
CC(=O)c1cccc(C(=O)NC(C)c2nc(C)c[nH]2)c1 (stereo unspecified)	15.93
C[C@@H](CO)CCNc1cc(C2CC(N)C2)ncn1 (stereo partly specified)	10.37
Cc1cc(N2CCS(=O)(=O)CC2)nc2ccccc12	1.091
Cc1ccnc(NCCNC(=O)c2cc(C)n[nH]2)c1	-0.5759
NC(=O)CN1CCN(CCOc2ccc(Cl)cc2)CC1	-8.22
CN1C(=O)Cc2cc(CN)ccc21	27.67
O=C(CNC(=O)NC1CCCC1)Nc1ccccc1	-0.2617
COc1ccccc1-c1[nH][nH]c(=O)c1CCN	-27.88
CN(CC(=O)N1CC[C@H]2CNC[C@H]21)Cc1cccnc1	-18.47
CN(C)Cc1ccnc(NCc2cc(C#N)cs2)c1	7.156
CC1CCN(Cc2cc(=O)n3ccsc3n2)CC1	0.3112
Cc1ncc(Cn2cc(F)ccc2=O)s1	1.032
Cc1cc(NC(=O)NCc2cccc(C)n2)ccn1	9.79
O=S(=O)(NCc1nccs1)N1CCc2ccccc2C1	0.5091
CC(C)CC(=O)N1CCC(OCc2ccccn2)C1 (stereo unspecified)	-0.6774
Cc1cc(F)ccc1CN1CCOC(CCN)C1 (stereo unspecified)	8.276
Cc1cc(C2CCCNC2)[nH]n1 (stereo unspecified)	-2.122
O=S1(=O)CCCN(Cc2ccc(Br)c(F)c2)CC1	10.66
O=C1NC(=O)c2c(O)cccc21	-23.51
CC(C)C(N)c1nnc2n1CCC2 (stereo unspecified)	7.103
Cc1ccn(Cc2cccnc2)c(=O)c1	4.468
O=C(CSc1cccs1)NCC(=O)N1CCCC1	25.18
Cc1occc1C(=O)NCC1(N(C)C)CCOCC1	19.03
O=C(CCC(F)(F)F)NCCc1cnccn1	-6.888
Cc1cnn(CCNc2ccc(F)cn2)c1	12.56
O=S(=O)(Cc1ccccn1)Cc1ccccc1Cl	-1.147
CCc1cc(C(=O)NC(CO)Cc2ccccc2)[nH]n1 (stereo unspecified)	-3.713
O=C(Cc1noc2ccccc12)NCC1CCOC1 (stereo unspecified)	-14.47
O=C(c1cc(Cl)c[nH]1)N1CCN(Cc2cccs2)CC1	4.887
Cc1n[nH]cc1NC(=O)NCC(c1cccs1)N(C)C (stereo unspecified)	-19.97
CCSc1nnc(-c2ccc[nH]2)o1	-19.43
NCCN1CCC(C(N)=O)CC1	44.2

For reference, 4 entries once more:

| SMILES | effect |
|---|---|
| `O=S(=O)(NCc1nccs1)N1CCc2ccccc2C1` | 0.5091 |
| `CN1CCN(C2CCN(Cc3ccccn3)CC2)CC1` | -24.74 |
| `O=C(c1cc(Cl)c[nH]1)N1CCN(Cc2cccs2)CC1` | 4.887 |
| `Cc1cc(N2CCS(=O)(=O)CC2)nc2ccccc12` | 1.091 |